From publication PMC8933468
These are yes or no findings as the source states them, for the method shown. In cells and extracts the contact can be indirect. Some entries that bind do so weakly or less than the wild type. For some of these results: Where a sequence is shown, tags or fusion partners need not be part of it.

Chains of the proteins cited; added tags and fusions are not shown.
UniProt P38936: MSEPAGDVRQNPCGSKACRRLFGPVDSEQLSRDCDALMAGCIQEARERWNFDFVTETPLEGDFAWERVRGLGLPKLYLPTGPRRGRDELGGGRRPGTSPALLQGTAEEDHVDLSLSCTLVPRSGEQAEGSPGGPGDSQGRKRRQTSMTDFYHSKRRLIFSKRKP
UniProt Q12834: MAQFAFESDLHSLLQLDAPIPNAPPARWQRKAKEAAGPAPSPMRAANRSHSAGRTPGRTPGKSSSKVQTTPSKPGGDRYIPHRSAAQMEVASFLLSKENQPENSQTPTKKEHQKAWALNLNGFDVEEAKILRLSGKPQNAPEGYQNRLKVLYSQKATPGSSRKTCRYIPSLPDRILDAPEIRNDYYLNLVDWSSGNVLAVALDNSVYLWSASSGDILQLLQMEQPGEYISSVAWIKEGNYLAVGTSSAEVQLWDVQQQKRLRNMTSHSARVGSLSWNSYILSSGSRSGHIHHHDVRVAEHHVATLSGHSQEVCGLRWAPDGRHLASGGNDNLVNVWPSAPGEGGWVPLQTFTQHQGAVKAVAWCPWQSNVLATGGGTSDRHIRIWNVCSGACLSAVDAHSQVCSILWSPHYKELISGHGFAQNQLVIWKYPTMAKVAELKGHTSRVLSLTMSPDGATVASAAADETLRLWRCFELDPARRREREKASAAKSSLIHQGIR
UniProt Q9NZJ0: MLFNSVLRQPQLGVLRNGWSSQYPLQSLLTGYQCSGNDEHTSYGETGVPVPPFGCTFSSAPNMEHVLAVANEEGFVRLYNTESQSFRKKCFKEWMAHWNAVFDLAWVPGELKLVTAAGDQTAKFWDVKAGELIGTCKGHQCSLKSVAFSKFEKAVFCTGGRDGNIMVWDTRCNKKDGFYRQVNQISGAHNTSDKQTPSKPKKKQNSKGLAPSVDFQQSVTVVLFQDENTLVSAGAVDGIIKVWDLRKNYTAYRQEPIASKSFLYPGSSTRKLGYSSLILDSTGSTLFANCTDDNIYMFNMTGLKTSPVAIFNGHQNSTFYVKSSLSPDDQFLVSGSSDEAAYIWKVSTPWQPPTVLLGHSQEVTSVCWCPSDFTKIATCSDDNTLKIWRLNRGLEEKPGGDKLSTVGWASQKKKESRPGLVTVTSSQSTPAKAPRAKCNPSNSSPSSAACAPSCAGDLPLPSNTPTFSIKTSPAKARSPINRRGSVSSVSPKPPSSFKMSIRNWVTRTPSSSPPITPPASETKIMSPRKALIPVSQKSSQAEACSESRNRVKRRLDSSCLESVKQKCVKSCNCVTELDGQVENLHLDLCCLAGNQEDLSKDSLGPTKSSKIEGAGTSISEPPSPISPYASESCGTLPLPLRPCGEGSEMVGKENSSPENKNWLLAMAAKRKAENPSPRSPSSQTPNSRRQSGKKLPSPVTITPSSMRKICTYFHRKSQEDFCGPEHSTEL

Legend:
[1] = target: p21 stably overexpressed in HuH-7 and HepG2 cells (UniProt P38936); experiment: co-IP; HuH-7 and HepG2 cells stably overexpressing p21, transfected with CMTM6 plasmids (HuH-7) or CMTM6 small interfering RNAs (HepG2)
[2] = target: T1, endogenous CMTM6 (human (endogenous in HuH-7, HepG2 and 293T)) (UniProt Q9NX76); experiment: co-IP; endogenous proteins; HuH-7 and HepG2 cell lysates immunoprecipitated with control IgG, anti-CMTM6 or anti-p21 antibody; Western blot
T1 sequence: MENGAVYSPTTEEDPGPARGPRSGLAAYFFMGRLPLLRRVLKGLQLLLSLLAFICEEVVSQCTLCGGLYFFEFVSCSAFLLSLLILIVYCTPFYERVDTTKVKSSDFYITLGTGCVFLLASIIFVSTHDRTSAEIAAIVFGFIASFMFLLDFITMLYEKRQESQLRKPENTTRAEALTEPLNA

Flag-CMTM6 = target: T2, Flag-CMTM6 (UniProt Q9NX76); experiment: co-IP; 293T cells transfected with either Flag-CMTM6 or Myc-p21; immunoprecipitation with control IgG, anti-Flag or anti-Myc antibody, Protein A/G magnetic beads, IP Lysis Buffer, 4 °C; Western blot
T2 sequence: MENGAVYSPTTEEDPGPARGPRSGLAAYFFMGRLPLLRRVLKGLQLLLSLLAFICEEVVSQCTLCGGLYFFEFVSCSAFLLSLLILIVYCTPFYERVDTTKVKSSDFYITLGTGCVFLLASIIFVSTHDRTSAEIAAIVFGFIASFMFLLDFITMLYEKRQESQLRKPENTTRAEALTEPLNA

[3] = target: endogenous p21 (human (endogenous in HuH-7, HepG2 and 293T)) (UniProt P38936); experiment: co-IP; endogenous proteins; HuH-7 and HepG2 cell lysates immunoprecipitated with control IgG, anti-CMTM6 or anti-p21 antibody; Western blot
Myc-p21 = Myc-p21 (UniProt P38936); experiment: co-IP; 293T cells transfected with either Flag-CMTM6 or Myc-p21; immunoprecipitation with control IgG, anti-Flag or anti-Myc antibody, Protein A/G magnetic beads, IP Lysis Buffer, 4 °C; Western blot

CDC20 (from UniProt Q12834 1-499)
binding [1]: binds

CDT2 (from UniProt Q9NZJ0 1-730)
binding [1]: binds

endogenous p21 (from UniProt P38936 1-164)
binding [2]: binds | binding (Flag-CMTM6): binds

B1: CMTM6 expressed from CMTM6 plasmids in HuH-7 cells (protein, UniProt Q9NX76 1-183)
chain: MENGAVYSPTTEEDPGPARGPRSGLAAYFFMGRLPLLRRVLKGLQLLLSLLAFICEEVVSQCTLCGGLYFFEFVSCSAFLLSLLILIVYCTPFYERVDTTKVKSSDFYITLGTGCVFLLASIIFVSTHDRTSAEIAAIVFGFIASFMFLLDFITMLYEKRQESQLRKPENTTRAEALTEPLNA
binding [1]: binds

B2: endogenous CMTM6 (protein, UniProt Q9NX76 1-183)
chain: MENGAVYSPTTEEDPGPARGPRSGLAAYFFMGRLPLLRRVLKGLQLLLSLLAFICEEVVSQCTLCGGLYFFEFVSCSAFLLSLLILIVYCTPFYERVDTTKVKSSDFYITLGTGCVFLLASIIFVSTHDRTSAEIAAIVFGFIASFMFLLDFITMLYEKRQESQLRKPENTTRAEALTEPLNA
binding [3]: binds | binding (Myc-p21): binds
